For one substance, binding results are on record in publication PMC6701830.

The target of assay [1] is T1, soluble Clec9A ectodomain (recombinant) (mouse) (UniProt Q8BRU4).
T1 sequence: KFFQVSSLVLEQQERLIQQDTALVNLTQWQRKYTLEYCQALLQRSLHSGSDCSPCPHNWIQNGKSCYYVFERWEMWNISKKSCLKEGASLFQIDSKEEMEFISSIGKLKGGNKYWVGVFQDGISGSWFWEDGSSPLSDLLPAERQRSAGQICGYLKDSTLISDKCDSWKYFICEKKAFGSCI
In words: ELISA; soluble Clec9A ectodomain coated at 100 ng/well (100mM NaCl, 20mM Tris, pH 8.8, overnight 4°C); purified Env titrated in a half log series, two hours at room temperature in block buffer; detected with pooled HIV+ sera; single experiment (Fig 1E); both purified.

Assay [2] deals with T2, full length Clec9A expressed on the surface of transfected 293T cells (pClec9A-EGFP) (mouse) (UniProt Q8BRU4).
T2 sequence: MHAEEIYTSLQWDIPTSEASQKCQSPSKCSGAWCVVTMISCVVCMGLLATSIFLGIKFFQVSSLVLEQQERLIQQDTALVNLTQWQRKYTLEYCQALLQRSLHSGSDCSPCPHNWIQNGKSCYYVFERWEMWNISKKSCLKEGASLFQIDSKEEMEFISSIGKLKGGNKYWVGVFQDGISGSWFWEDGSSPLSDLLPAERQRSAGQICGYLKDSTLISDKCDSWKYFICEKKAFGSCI
In words: flow cytometry on cells; 293T cells transfected with pClec9A-EGFP, stained with 10μg/mL uncleaved AD8 gp140, detected with PGT121-CF647; gated on EGFP High or EGFP Low cells; only the binder purified. (Flow cytometry measures light scatter and fluorescence of single cells or particles in a stream.)

In assay [3] the target is T1, soluble Clec9A ectodomain (recombinant) (mouse). Put plainly: ELISA; soluble Clec9A ectodomain coated at 100 ng/well; Env in tissue culture supernatant prior to purification, half log series; detected with pooled HIV+ sera; single experiment (Fig 1D); only the target purified.

These are yes or no findings as the source states them, for the method shown. For part of these data: Where a sequence is shown, tags or fusion partners need not be part of it.

Turning to “uncleaved AD8 gp140 (soluble ectodomain of HIV-1 AD8 Env) (domain or fragment)”, the binding result in assay [1] is listed as “no binding”; in assay [2], “no binding (tested: 10μg/mL)”; in assay [3], “no binding”.
